Experimental data as given in patent US5882914.
Where cells or extracts were used, other partners may take part. For some assays here: Negatives hold for the conditions tested. For some assays here: The exact form of at least one protein or probe is not confirmed. For some assays here: A weaker result is weaker than the reference pair of the same experiment.

Key:
[1] = system: constitutive W18-binding factor (40-50 kDa DNA-binding subunit) (Homo sapiens); assay: footprint; settings: protein in an extract, variant of W18
[2] = system: HIF-1 in nuclear extract (Homo sapiens); assay: footprint; settings: methylation interference, protein in an extract, variant of W18
[3] = system: constitutive W18-binding factor (40-50 kDa DNA-binding subunit) (Homo sapiens); assay: EMSA; settings: sequence-specific constitutive activity; protein in an extract
[4] = system: HIF-1 in nuclear extract (Homo sapiens); assay: EMSA; settings: induced by CoCl2 or 1% O2; supershifted by anti-HIF-1alpha and anti-HIF-1beta sera; protein in an extract

## GATCGCCCTACGTGCTGTCTCA (double strand) [W18 methylated noncoding G11]
[1]; methyl-G at G11 noncoding strand (W18 numbering), no methylation interference
  binding result: binds
[2]; methyl-G at G11 noncoding strand (W18 numbering), binding blocked
  binding result: no binding

## GATCGCCCTACGTGCTGTCTCA (double strand) [W18 methylated coding G8]
[2]; methyl-G at G8 coding strand (W18 numbering), binding eliminated
  binding result: no binding

## GATCGCCCTACGTGCTGTCTCA (double strand) [W18]
[3]
  binding result: binds
[4]
  binding result: binds

## GATCGCCCTACGTGCTGTCTCA (double strand) [W18 methylated coding G10]
[1]; methyl-G at G10 coding strand (W18 numbering), partial methylation interference
  binding result: binds more weakly

## GATCGCCCTACGTGCTGTCTCA (double strand) [W18 methylated noncoding G7]
[1]; methyl-G at G7 noncoding strand (W18 numbering), methylation interferes with binding
  binding result: binds more weakly
[2]; methyl-G at G7 noncoding strand (W18 numbering), binding blocked
  binding result: no binding
